Measurements: patent EP1789452B1, “RELAXIN-CHIMERIC POLYPEPTIDES AND THEIR PREPARATION AND USE” (Janssen Pharmaceutica NV, priority 2004, dated 2006)
At least one structure is not confirmed: it was looked up by name or label, or the drawing left a doubt.

By UniProt entry, the sequences of proteins in these tests, tags left out. Where a name states a change or a piece, a line headed by the entry shows the natural chain unless it says otherwise.
UniProt Q8TDU9: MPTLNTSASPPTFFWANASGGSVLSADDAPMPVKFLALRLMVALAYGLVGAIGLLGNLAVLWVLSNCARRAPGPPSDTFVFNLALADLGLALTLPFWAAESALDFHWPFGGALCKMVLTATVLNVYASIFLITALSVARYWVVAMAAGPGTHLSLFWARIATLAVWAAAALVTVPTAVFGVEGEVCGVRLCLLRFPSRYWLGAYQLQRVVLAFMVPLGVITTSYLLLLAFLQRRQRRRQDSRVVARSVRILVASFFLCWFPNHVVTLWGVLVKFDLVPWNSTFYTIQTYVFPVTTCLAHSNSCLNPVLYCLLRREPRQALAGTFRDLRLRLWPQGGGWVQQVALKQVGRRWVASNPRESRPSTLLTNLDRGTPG

Target: T1, GPCR142 (Homo sapiens, UniProt Q8TDU9)
T1 construct: expressed in transfected cells
Assay: Inhibition of forskolin stimulated β-galactosidase expression in SK-N-MC/β-gal cells
Format: cell-based
Settings: forskolin 5 µM; mean ± SEM, n = 3; ND denotes no activity was detected

Work on `CC[C@H](C)[C@H](NC(=O)[C@H](Cc1ccccc1)NC(=O)[C@H](CCC(=O)O)NC(=O)[C@H](CCCNC(=N)N)NC(=O)CNC(=O)[C@H](CS)NC(=O)[C@H](CC(C)C)NC(=O)[C@H](CCCNC(=N)N)NC(=O)[C@@H](NC(=O)CNC(=O)[C@H](Cc1ccc(O)cc1)NC(=O)[C@@H]1CCCN1C(=O)[C@H](C)NC(=O)[C@H](C)NC(=O)[C@@H](N)CCCNC(=N)N)C(C)C)C(=O)N[C@@H](CCCNC(=N)N)C(=O)N[C@@H](C)C(=O)N[C@H](C(=O)N[C@H](C(=O)N[C@@H](Cc1ccccc1)C(=O)N[C@H](C(=O)N[C@@H](CS)C(=O)NCC(=O)NCC(=O)N[C@@H](CO)C(=O)N[C@@H](CCCNC(=N)N)C(=O)N[C@@H](Cc1c[nH]c2ccccc12)C(=O)O)[C@@H](C)O)[C@@H](C)CC)C(C)C` [relaxin-3 B-chain] yielded an EC50 of 125 nM.
